Results from US20230131859A1, “BIOCONVERSION OF OLEUROPEIN” (SOCIETE DES PROUITS NESTLES S.A., priority 2017, published 2023).
At least one compound was matched to its structure with a doubt left.

Key:
chondrocytes = experiment: in vitro data on chondrocytes metabolism; assay type: cell-based
[1] = cited from earlier work

## OCCc1ccc(O)c(O)c1 [hydroxytyrosol, 3,4-dihydroxyphenylethanol]
chondrocytes
  results on chondrocytes metabolism: significant positive results
chondrocytes; compared to oleuropein
  efficacy on chondrocytes metabolism relative to oleuropein: higher efficacy compared to oleuropein

## CC=C1C(O)OC=C(C(=O)OC)C1CC(=O)OCCc1ccc(O)c(O)c1 (stereo not drawn) [oleuropein aglycone, 3,4-dihydroxyphenylethanol-elenolic acid]
[1]
  antioxidant activity: comparable to that of caffeic acid, oleuropein and hydroxytyrosol
